Experimental data from paper PMC10991417.

Columns and labels:
[1] = molecular target: T1, NOT2 (Drosophila CCR4-NOT complex subunit) (Drosophila) (UniProt Q94547); experiment: ReLo relocalization assay (live-cell confocal fluorescence microscopy); pairwise; membrane anchor (PH or OST4) and which partner was anchored are not given; S2R+ cells cotransfected with two plasmids, imaged after 48 h at 25 °C
T1 sequence: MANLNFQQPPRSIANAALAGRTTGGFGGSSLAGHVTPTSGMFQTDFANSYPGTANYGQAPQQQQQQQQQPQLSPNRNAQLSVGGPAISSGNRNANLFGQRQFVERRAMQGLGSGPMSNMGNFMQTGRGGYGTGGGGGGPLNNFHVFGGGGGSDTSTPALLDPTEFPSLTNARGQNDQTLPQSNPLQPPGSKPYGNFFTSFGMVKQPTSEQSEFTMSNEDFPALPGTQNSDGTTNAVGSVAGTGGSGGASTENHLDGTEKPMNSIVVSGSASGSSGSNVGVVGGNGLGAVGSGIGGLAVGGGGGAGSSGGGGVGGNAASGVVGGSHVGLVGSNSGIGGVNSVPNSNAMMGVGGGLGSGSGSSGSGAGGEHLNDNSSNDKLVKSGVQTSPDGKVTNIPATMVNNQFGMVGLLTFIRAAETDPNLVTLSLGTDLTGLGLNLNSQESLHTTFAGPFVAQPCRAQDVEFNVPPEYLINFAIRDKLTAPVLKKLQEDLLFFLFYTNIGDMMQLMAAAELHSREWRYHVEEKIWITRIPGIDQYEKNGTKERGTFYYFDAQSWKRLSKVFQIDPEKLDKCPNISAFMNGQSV

[2] = molecular target: T1, NOT2 (Drosophila CCR4-NOT complex subunit) (Drosophila); experiment: ReLo relocalization assay (live-cell confocal fluorescence microscopy); pairwise; one partner anchored to the plasma membrane by the PH domain of rat PLCδ1 and fused to mCherry, the other fused to EGFP/mEGFP; S2R+ cells cotransfected with two plasmids, imaged after 48 h at 25 °C
[3] = molecular target: CCR4 (Drosophila CCR4-NOT complex subunit) (Drosophila); experiment: ReLo relocalization assay (live-cell confocal fluorescence microscopy); pairwise; membrane anchor (PH or OST4) and which partner was anchored are not given; S2R+ cells cotransfected with two plasmids, imaged after 48 h at 25 °C
[4] = molecular target: CAF1 (Drosophila CCR4-NOT complex subunit) (Drosophila); experiment: as above
[5] = molecular target: CAF1 with the OST4 membrane anchor (Drosophila); experiment: ReLo relocalization assay (live-cell confocal fluorescence microscopy); pairwise; one partner anchored to the ER by yeast OST4 and fused to mCherry; S2R+ cells cotransfected, imaged after 48 h
[6] = molecular target: CAF1 (Drosophila CCR4-NOT complex subunit) (Drosophila); experiment: ReLo relocalization assay (live-cell confocal fluorescence microscopy); pairwise; one partner anchored to the plasma membrane by the PH domain of rat PLCδ1 and fused to mCherry, the other fused to EGFP/mEGFP; S2R+ cells cotransfected with two plasmids, imaged after 48 h at 25 °C

binding [1]: no binding
Molecule: Roquin (Drosophila)

binding [2]: no binding
Molecule: CCR4 (Drosophila CCR4-NOT complex subunit)

binding [3]: no binding
binding [4]: no binding
B1: Cup (Drosophila) (protein, UniProt Q9VMA3 1-1117)
chain: MQMAEAEQENGAGALKIATNAGATDRPAHQQLPLPVEDQQDEVLTPAEKGKFEYPPPPPPPTPVQAPLATKATALNASQEHDDDEANSEKWEDPCAPPPPPPLPTSAFLATGLGYLKLPAFKLKDALEKAITKLEANKRTLKASPESSRSIKNKNVVALEMLPRRSNPETIGDGSMLASTSTAVMLQTKKPAVIVEMERRCKIINLLAKQNQILESISGEAIPMHGPSKHLHEDEGLTLQVLSARASTPYTQPSSMLSCTAVSCDLEHDSPRKQVASKEAVPEQQSSQVQQKRPPSTGIHKPGSLRAPKAVRPTTAPVVSSKPVKSYTRSRLMDIRNGMFNALMHRSKESFVMPRIATCDDIELEGRLRRMNIWRTSDGTRFRTRSTTANLNMNNNNNNECMPAFFKNKNKPNLISDESIIQSQPPQPQTEFQDPAIVNQRRIGSGRLNHSKWGYNDEDYHSYHNGKSQHMEEVNSKNSKNMTVLQFFDNGEISSQPQRRPNTPVMGMSINRSENDTLHSNESSEDLSRANENYVKRVMSGFLVVSKPKSRDVEDRHHRRYRNQNEEPEWFSCGPTSRLDTIELCGFDEDEEKMLKEGNKNHGLGETERETSKQKMDHKYKWTHAEPMGRSKYMPKHDTNNNHNVENMNNVMATEHQQQKEEKRPGSGRSFQFDKFNQSQQNYESSSYVNHQQPPQTQPQQMQQQSNTNTNNSKFMSFFANEGNSSSSSLNEFFKQAINQGHGNNPEQPKSLGHIGQMPSVDQLEAKWRRNSLNNVGETANKQTDNFQKLIGSLSSAKPQSQAVGYDAISNFIMQQQQYQQQQQKQHLIIQQQQQHTAFLASLQLKAILGRADTQLLLLRLTKGEISKHGLLVQLANPRLTDMDREAITAVLQFTNTQQQQQQHKQQLDMLSSTVIASQLQNLHNLAIVQQTLAARQQPQHNPQTQAPHQLSQEDLQAHANVIMRNAVMKRKIEEQTSKLINGGAKHQAQQQYLNRGQQRQARPDANSNALLHALISGGGNNHASGYPMNGQPQKHHSNLRFGDNQNFQSFESNQPHFATQYKQQYQQSQQQHPHQQPQQLNSLHQNNAGAVNSFNKAQMQAQSAISMLPNSGDEFH

binding [3]: no binding
binding [4]: no binding
B2: Bag-of-marbles (Bam) (protein, UniProt P22745 1-442)
chain: MLNARDVCPEGNDDQQLDHNFKQMEEHLALMVEGNENEDPRKATCEYEDTNEDGATCTSGVLSEIQENFGRLRLCDVTAPLLEFHGLDCLQQIQKRSRHFAFDGSPAKKSRSGGVLVTGPKQKQLQKENVWNRKSKGSASADNIEKLPITIEKLHMIGLHGDCLEHNAVLRLMNLFRSLHDHLTADLGFSRQNSMPSDYLFDMPVKSTMPKSLNVRYQLQVLCTKVERFLVQQRRTLEANRHFDFEKYDECDKLLKGFASYLDNFKLLLKPKMRNRNGNSGSNADKFHTQRMERLLIGLRDWIKAAHLSVHVFNWEMDLEHRYSGAMTESHKSLNERAILLSGAELRAAEARGISAEDLFIAQRYKLGGPIYCVLEQHEFLSALIANPETYFPPSVVAICGPQKLGAVSMEQPSASEEEFEETEEVPSSPPRHTGRVPRFRS

binding [5]: no binding
binding [6]: no binding
B3: NOT2 (Drosophila CCR4-NOT complex subunit) (protein, UniProt Q94547 1-585)
chain: T1 sequence

These are yes or no findings as the source states them, for the method shown. Each block holds one molecule with its values, some of them ahead of it.
